Measurements as given in PMC11101681.
No constants are given. Whether binding was seen depends on the method and setting. Binding seen in cells or lysates may run through a third protein. Here binding means that the protein was enriched with, or labelled near, the bait; the list need not be complete. For some of these results: Sequences can lack the tags named with a protein. One block for each substance: values may come before it.

Chains of the proteins cited; added tags and fusions are not shown.
UniProt Q9NVP2: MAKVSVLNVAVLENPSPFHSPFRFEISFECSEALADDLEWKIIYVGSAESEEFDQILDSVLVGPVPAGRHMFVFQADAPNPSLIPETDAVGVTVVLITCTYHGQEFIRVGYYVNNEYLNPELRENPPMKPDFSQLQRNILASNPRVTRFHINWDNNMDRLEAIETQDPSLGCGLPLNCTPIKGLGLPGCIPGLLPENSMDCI
UniProt P39687: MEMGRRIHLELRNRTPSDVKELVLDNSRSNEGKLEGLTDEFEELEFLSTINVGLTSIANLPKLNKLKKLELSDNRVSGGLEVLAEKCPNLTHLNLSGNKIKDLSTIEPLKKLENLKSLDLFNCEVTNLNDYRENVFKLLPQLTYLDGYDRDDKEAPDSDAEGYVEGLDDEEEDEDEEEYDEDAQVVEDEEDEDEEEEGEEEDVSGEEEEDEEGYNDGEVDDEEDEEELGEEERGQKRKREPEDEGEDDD
UniProt Q9HCK8: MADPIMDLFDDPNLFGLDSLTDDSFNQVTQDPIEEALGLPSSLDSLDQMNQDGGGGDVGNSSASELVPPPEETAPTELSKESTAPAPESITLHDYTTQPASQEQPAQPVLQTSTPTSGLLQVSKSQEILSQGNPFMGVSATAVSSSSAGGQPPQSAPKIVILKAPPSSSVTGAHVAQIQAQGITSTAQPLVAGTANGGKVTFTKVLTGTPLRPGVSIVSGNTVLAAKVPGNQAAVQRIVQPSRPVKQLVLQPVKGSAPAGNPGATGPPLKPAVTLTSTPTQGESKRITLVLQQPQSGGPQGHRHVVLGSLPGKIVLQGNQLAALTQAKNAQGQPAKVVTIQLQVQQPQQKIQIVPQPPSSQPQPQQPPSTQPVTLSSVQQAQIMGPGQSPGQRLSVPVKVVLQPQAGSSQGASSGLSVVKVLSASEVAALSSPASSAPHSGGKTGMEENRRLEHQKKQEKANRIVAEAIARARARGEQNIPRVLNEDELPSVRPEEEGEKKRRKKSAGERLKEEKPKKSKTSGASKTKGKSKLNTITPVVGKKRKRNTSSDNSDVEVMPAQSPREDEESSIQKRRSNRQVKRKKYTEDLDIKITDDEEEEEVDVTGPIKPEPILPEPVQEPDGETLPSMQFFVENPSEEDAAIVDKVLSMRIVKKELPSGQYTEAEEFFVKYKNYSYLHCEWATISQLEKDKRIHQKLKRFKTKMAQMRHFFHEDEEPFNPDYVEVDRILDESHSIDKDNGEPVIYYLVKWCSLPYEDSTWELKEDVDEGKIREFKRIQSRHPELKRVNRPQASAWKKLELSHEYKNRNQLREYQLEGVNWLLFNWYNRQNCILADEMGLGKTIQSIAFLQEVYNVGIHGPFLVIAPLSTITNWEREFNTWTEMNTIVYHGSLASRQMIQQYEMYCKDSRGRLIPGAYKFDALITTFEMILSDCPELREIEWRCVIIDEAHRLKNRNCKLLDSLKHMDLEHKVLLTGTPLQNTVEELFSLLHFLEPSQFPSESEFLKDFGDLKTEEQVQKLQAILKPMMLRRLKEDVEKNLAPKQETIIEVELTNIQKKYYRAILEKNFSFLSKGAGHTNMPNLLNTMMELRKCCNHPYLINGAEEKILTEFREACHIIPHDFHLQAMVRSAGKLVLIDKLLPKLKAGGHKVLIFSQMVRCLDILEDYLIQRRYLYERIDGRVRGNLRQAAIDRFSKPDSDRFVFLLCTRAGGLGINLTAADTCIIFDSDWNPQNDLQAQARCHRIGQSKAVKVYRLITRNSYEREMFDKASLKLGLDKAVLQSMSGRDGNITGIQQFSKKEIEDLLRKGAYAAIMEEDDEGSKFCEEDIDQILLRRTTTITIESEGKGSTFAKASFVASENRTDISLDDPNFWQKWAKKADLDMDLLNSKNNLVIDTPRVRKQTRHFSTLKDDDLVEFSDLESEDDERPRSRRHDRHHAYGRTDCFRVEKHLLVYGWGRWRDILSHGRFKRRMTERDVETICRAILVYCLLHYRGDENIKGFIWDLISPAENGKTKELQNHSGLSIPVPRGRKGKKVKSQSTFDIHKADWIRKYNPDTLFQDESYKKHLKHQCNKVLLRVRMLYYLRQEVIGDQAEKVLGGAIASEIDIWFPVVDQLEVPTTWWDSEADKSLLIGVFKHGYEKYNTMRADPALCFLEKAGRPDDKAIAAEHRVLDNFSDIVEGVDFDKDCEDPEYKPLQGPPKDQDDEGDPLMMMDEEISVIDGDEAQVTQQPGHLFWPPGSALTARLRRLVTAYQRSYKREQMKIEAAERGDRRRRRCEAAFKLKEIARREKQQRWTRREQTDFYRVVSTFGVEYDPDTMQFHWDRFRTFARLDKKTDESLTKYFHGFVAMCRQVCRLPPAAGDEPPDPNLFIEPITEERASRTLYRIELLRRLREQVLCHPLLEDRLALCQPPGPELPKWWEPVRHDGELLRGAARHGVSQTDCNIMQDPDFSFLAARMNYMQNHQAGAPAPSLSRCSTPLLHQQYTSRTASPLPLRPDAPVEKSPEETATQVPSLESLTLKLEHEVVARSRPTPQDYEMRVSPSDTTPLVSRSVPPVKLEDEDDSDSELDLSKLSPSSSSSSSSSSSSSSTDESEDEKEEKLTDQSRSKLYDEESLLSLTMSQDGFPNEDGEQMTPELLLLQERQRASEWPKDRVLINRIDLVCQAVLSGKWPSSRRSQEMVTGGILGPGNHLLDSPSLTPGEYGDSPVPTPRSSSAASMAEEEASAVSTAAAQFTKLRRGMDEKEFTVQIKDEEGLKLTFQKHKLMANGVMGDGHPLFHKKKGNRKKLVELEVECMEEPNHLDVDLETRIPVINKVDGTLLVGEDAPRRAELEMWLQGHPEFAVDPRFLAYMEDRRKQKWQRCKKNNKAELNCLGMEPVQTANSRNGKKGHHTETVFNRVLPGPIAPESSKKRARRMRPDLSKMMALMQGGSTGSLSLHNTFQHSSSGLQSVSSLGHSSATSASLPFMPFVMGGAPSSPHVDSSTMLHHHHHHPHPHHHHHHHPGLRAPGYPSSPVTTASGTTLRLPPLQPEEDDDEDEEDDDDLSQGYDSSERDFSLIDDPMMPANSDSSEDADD
UniProt Q9BRT9: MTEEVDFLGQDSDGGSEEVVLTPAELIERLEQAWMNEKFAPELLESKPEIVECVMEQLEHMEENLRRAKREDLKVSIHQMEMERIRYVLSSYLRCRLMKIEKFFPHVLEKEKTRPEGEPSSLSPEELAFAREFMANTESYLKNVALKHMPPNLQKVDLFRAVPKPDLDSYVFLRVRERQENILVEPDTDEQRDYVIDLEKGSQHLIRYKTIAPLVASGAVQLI
UniProt P09884: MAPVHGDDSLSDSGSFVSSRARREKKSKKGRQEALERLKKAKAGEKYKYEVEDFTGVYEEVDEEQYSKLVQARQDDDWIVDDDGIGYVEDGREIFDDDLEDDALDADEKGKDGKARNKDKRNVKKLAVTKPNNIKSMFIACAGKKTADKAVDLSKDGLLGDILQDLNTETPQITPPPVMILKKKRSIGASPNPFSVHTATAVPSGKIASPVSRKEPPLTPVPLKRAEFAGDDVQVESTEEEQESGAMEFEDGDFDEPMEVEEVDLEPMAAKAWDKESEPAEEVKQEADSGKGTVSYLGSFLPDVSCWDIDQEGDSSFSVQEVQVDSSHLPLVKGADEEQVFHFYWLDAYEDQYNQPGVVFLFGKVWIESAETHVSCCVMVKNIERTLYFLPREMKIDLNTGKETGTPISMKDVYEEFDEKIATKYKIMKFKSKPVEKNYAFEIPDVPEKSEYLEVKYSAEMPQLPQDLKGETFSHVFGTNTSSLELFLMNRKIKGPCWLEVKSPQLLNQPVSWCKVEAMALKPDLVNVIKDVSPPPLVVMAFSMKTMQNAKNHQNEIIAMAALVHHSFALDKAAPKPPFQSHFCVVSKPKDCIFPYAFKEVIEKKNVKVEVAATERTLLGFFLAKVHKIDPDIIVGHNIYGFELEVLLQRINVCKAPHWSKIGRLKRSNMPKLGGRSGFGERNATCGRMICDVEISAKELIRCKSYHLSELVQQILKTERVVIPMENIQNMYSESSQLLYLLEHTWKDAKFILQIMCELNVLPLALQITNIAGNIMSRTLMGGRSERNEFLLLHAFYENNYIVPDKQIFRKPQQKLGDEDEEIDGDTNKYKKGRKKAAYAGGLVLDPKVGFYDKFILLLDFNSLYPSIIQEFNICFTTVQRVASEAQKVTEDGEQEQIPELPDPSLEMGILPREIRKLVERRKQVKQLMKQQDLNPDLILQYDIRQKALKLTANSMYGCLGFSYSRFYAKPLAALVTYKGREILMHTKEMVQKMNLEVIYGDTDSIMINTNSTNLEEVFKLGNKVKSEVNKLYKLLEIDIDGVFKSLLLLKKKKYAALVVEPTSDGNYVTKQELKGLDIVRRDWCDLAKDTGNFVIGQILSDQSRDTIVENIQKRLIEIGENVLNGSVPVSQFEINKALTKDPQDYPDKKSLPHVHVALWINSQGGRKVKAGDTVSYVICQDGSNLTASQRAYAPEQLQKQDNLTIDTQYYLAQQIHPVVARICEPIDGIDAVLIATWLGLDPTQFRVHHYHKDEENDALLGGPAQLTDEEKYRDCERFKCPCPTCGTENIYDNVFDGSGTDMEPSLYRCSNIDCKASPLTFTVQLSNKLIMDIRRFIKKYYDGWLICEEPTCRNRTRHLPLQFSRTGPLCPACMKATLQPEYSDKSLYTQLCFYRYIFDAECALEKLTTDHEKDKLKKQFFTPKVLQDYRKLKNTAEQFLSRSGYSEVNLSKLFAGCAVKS
UniProt Q9NRL2: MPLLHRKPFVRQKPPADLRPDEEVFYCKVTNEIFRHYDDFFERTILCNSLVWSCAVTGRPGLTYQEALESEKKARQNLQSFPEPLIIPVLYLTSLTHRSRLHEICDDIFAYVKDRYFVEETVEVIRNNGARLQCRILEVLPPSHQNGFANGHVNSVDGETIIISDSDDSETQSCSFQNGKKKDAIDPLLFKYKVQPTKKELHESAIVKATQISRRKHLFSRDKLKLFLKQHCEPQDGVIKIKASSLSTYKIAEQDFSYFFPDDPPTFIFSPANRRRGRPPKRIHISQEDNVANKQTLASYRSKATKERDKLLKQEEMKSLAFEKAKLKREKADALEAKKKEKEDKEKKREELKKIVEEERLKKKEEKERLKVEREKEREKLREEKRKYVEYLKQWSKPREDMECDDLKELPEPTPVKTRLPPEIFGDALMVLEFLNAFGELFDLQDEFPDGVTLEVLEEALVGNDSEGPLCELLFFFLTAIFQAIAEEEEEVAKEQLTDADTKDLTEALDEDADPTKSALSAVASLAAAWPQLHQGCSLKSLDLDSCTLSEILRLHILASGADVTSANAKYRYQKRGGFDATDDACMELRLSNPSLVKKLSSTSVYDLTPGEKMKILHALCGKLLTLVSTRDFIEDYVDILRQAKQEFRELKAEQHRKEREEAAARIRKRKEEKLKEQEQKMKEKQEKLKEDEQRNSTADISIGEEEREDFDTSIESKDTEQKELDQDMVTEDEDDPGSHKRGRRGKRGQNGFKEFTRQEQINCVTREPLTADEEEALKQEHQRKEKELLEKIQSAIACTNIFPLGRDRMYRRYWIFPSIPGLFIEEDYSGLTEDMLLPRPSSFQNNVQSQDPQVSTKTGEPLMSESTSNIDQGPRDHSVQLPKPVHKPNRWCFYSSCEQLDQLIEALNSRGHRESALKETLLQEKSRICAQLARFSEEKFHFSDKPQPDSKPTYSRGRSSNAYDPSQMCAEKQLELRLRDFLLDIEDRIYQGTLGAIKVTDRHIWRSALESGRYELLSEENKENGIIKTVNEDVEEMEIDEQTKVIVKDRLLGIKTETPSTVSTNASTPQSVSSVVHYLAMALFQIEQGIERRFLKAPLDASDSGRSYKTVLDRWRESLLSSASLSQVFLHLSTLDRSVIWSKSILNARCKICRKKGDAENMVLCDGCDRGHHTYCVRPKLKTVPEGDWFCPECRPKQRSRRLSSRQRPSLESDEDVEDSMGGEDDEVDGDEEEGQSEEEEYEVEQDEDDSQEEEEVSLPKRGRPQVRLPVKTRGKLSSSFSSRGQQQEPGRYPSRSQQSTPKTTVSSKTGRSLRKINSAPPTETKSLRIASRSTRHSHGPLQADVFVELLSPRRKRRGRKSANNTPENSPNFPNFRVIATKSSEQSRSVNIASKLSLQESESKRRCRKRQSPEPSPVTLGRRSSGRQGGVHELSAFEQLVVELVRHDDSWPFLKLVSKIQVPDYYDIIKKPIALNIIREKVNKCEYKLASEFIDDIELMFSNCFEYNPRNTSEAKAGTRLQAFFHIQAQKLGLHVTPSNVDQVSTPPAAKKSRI

Key:
Test in all cases: proximity labelling; BioID2 fused N-terminally to the bait in stable HEK293 Flp-In T-REx cells; doxycycline 48 h, 50 uM biotin for the last 24 h, with or without 1 mM hydroxyurea for the last 24 h; lysis in 8 M urea, streptavidin sepharose, trypsin, LC-MS/MS; hits by SAINT score >=0.95 against the 293FT control and AvgSpec >=5
[1] = target: T1, POLE4 (Flag-BIOID2-POLE4) (human (cDNA library of U2OS cells)) (UniProt Q9NR33)
T1 sequence: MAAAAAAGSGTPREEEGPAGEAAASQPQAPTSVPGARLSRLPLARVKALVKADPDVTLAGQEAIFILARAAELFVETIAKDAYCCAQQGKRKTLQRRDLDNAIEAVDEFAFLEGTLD

[2] = target: ASF1B (3xMyc-BioID2-ASF1B) (human (cDNA library of U2OS cells)) (UniProt Q9NVP2)
[3] = target: T2, GINS1 (FLAG-BioID2 fusion bait) (human (cDNA library of U2OS cells)) (UniProt Q14691)
T2 sequence: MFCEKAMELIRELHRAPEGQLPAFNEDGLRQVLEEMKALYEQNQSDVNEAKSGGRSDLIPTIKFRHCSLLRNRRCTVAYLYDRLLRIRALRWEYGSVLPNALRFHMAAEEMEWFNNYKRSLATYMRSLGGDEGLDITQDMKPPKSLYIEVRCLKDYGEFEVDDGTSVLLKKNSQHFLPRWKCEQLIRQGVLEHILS

[4] = target: T3, GINS2 (Flag-BIOID2-GINS2) (human (cDNA library of U2OS cells)) (UniProt Q9Y248)
T3 sequence: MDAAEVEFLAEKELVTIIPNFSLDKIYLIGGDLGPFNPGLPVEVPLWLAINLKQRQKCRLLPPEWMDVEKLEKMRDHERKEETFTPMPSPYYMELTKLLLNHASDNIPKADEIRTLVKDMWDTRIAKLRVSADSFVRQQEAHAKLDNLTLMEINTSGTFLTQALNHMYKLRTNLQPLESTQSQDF

[5] = target: T4, WDHD1 (FLAG-BioID2 fusion bait) (human (cDNA library of U2OS cells)) (UniProt O75717)
T4 sequence: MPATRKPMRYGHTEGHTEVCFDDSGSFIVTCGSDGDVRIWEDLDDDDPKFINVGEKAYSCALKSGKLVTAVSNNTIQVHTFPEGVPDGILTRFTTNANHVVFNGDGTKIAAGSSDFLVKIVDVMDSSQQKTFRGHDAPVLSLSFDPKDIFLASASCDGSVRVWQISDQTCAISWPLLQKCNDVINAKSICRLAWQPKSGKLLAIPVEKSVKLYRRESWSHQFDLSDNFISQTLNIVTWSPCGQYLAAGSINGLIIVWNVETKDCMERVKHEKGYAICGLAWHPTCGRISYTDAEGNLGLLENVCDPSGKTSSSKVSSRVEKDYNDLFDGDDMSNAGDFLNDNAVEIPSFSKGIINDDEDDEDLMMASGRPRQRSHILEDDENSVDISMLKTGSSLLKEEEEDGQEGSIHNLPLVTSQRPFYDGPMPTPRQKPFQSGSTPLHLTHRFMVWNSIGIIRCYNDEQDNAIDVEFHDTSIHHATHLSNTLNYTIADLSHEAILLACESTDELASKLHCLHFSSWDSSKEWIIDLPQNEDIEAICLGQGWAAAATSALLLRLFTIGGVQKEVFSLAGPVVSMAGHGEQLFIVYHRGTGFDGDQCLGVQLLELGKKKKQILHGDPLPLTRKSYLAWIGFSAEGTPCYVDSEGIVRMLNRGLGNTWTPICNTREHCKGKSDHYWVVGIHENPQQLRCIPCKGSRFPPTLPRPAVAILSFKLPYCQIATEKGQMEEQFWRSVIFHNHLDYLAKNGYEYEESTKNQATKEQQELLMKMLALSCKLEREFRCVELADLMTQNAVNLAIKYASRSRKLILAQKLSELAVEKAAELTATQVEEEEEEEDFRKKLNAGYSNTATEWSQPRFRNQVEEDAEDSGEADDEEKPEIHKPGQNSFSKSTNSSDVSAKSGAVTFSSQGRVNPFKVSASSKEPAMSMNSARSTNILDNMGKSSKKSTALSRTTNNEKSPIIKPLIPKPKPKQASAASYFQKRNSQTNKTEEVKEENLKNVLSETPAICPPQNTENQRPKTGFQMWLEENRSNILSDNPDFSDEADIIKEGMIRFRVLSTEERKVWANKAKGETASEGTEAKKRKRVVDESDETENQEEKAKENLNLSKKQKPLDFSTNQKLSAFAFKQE

[6] = target: RPA1 (3MYC-BioID2 fusion bait) (UniProt P27694)
[7] = target: T5, RPA4 (3MYC-BioID2 fusion bait) (UniProt Q13156)
T5 sequence: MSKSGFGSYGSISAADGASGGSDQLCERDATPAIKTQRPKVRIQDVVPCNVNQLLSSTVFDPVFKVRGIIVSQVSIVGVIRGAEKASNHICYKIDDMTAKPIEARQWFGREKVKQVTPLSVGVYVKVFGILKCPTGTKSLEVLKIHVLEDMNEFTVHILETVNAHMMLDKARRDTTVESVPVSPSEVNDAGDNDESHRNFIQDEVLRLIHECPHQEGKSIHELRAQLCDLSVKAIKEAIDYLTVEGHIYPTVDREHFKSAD

Substance: Acidic leucine-rich nuclear phosphoprotein 32 family member A (ANP32A) (from UniProt P39687 1-249)
binding [1]: binds

Substance: CHD8 (from UniProt Q9HCK8 1-2581)
binding [2]: binds

Substance: GINS4 (FLAG-BioID2 fusion bait) (from UniProt Q9BRT9 1-223)
binding [3]: binds
binding [4]: binds
binding [5]: binds

Substance: POLA1, catalytic subunit of Pol alpha (from UniProt P09884 1-1462)
binding [6]: binds
binding [5]: binds

The next lines start with the values.

binding [1]: binds
Substance: BAZ1A (from UniProt Q9NRL2 1-1556)

binding [2]: binds
Substance: TLK1 kinase (from UniProt Q9UKI8 1-766)

binding [7]: binds
Substance: TP53 (from UniProt P04637 1-393)
